Results are given in words; binding and its absence hold for the method and conditions named. In cells and extracts the contact can be indirect. Binding calls can cover weak binding; strength is not graded here.

This experiment deals with endogenous NF90 (Nuclear Factor 90) (human (endogenous in LNCaP, LNCaP-abl, C4-2B, 22Rv1)). The experiment is described as follows: co-IP.

B1: endogenous NF110 (protein, UniProt Q12906 1-894)
chain: MRPMRIFVNDDRHVMAKHSSVYPTQEELEAVQNMVSHTERALKAVSDWIDEQEKGSSEQAESDNMDVPPEDDSKEGAGEQKTEHMTRTLRGVMRVGLVAKGLLLKGDLDLELVLLCKEKPTTALLDKVADNLAIQLAAVTEDKYEILQSVDDAAIVIKNTKEPPLSLTIHLTSPVVREEMEKVLAGETLSVNDPPDVLDRQKCLAALASLRHAKWFQARANGLKSCVIVIRVLRDLCTRVPTWGPLRGWPLELLCEKSIGTANRPMGAGEALRRVLECLASGIVMPDGSGIYDPCEKEATDAIGHLDRQQREDITQSAQHALRLAAFGQLHKVLGMDPLPSKMPKKPKNENPVDYTVQIPPSTTYAITPMKRPMEEDGEEKSPSKKKKKIQKKEEKAEPPQAMNALMRLNQLKPGLQYKLVSQTGPVHAPIFTMSVEVDGNSFEASGPSKKTAKLHVAVKVLQDMGLPTGAEGRDSSKGEDSAEETEAKPAVVAPAPVVEAVSTPSAAFPSDATAEQGPILTKHGKNPVMELNEKRRGLKYELISETGGSHDKRFVMEVEVDGQKFQGAGSNKKVAKAYAALAALEKLFPDTPLALDANKKKRAPVPVRGGPKFAAKPHNPGFGMGGPMHNEVPPPPNLRGRGRGGSIRGRGRGRGFGGANHGGYMNAGAGYGSYGYGGNSATAGYSQFYSNGGHSGNASGGGGGGGGGSSGYGSYYQGDNYNSPVPPKHAGKKQPHGGQQKPSYGSGYQSHQGQQQSYNQSPYSNYGPPQGKQKGYNHGQGSYSYSNSYNSPGGGGGSDYNYESKFNYSGSGGRSGGNSYGSGGASYNPGSHGGYGGGSGGGSSYQGKQGGYSQSNYNSPGSGQNYSGPPSSYQSSQGGYGRNADHSMNYQYR
With B1, the binding result is on record as “binds”.

Source of the values: article doi:10.64898/2025.12.02.691892.
